Drawing on PubChem BioAssay (NCATS), this text covers AC50 and max response for 30 molecules.

SMILES strings stand for the structures. “And” between values parts separate entries of the source, which are not always exact repeats. Equal entries are not always repeated. The list shows a part of the results. These are further read-outs of the screen, such as a control signal, another cell line or another target. No call is given for them. Compounds called inactive in the main read-out are mostly missing here. For some assays here: Potencies come from curve fits of mixed quality, noted in brackets.

A short description of experiment [1]: qHTS assay for small molecule antagonists of androgen receptor signaling (AID 588516). Conditions: AR-UAS-bla HEK293, beta-lactamase ratio, antagonist mode, 16 h; measured here: W460 blue channel fit. Put shortly:
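Cells were plated and incubated 5 h, compounds added in titration, then R1881 (10 nM final) as agonist. After 16 h at 37 C, CCF4 substrate was loaded for 2 h at room temperature and fluorescence measured.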
A general note: Quantitative high-throughput screening tests each substance at several concentrations.

A short description of experiment [2]: qHTS assay for small molecule antagonists of peroxisome proliferator-activated receptor delta signaling (AID 588535).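 Note: cells co-treated with a PPAR-delta agonist as stimulator during compound exposure.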 Conditions: HEK293T PPARd-UAS-bla, beta-lactamase FRET ratio, 18 h; 460 nm channel. Put shortly:
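Cell-based beta-lactamase assay in antagonist mode: 4000 HEK293T PPAR-delta-UAS-bla cells per well, 5 hr preincubation then 18 hr compound incubation at 37 C. IC50 obtained by Hill equation fitting.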

A short description of experiment [3]: qHTS assay for small molecule agonists of retinoid X receptor alpha signaling (AID 588544). Conditions: HEK293T RXRa-UAS-bla, beta-lactamase reporter, 18 h; 530 nm emission.
Experiment [4] can be described thus: qHTS assay for small molecule antagonists of retinoid X receptor alpha signaling (AID 588546).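 Note: cells stimulated with 9-cis-retinoic acid as agonist; % is set by controls: 0 for no effect and ±100 for the full control effect.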 Conditions: HEK293T RXRa-UAS-bla, beta-lactamase ratio, antagonist mode; measured here: W530 green channel, cytotoxicity proxy. Put shortly: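 Beta-lactamase reporter inhibition, read as CCF4 fluorescence ratio (ex 405, em 460/530 nm) after 2 h at RT. HEK293T UAS-bla cells, 2500/well, were stimulated with 9-cis-RA at 500 or 100 nM final alongside test compound for 18 h at 37 C.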

The nature of experiment [5]: qHTS assay for small molecule antagonists of glucocorticoid receptor signaling (AID 588533). The conditions noted are these: HeLa MMTV-bla, GRE beta-lactamase ratio, antagonist mode, 18 h; measured here: W530 channel AC50.
Experiment [6] can be described thus: qHTS assay for small molecule antagonists of peroxisome proliferator-activated receptor gamma signaling (AID 588537). The conditions noted are these: HEK293 PPARg-UAS-bla, beta-lactamase ratio, antagonist mode; measured here: W460 blue channel. In outline:
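Inhibitors of agonist-stimulated UAS-bla reporter activity were sought in HEK293 cells; rosiglitazone (50 nM) defined full signal and DMSO baseline. Curves fitted to Hill model gave IC50 and efficacy.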

Experiment [7] can be described thus: S16 Schwann cell PMP22 intronic element beta-lactamase assay (AID 624044). The conditions noted are these: S16 rat Schwann cells, PMP22 element beta-lactamase FRET, 24 h. In outline:
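Rat S16 Schwann cells with beta-Lac driven by a PMP22 intronic element, compound-treated 24 h at 37 °C. LiveBLAzer FRET B/G read: 460 nm normalized to potassium clavulanate vs DMSO; 535 nm FRET as viability; concentration-effect curves classified.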

The nature of experiment [8]: qHTS assay for small molecule antagonists of vitamin D receptor signaling (AID 588541). Conditions: HEK293T VDR-UAS-bla, beta-lactamase ratio, antagonist mode; measured here: W460 blue channel (cell viability).

By AC50 is commonly meant the concentration giving half of the maximal activity seen. Regarding `CC(C)OC(=O)C(O)(c1ccc(Br)cc1)c1ccc(Br)cc1`, in experiment [1], the AC50 is 50.1 µM [falling, partial curve, poor fit]. Moreover, the results for the max response in experiment [2], in experiment [3] and in experiment [4] were -33.1%, -5.78% and -50.8%, respectively.

Turning to `CCCCOC(=O)[C@@H](C)Oc1ccc(Oc2ccc(C#N)cc2F)cc1`, the max response in experiment [2] is 8.74%.

Take `CCCCCCCCCCCCCCC(Br)C(=O)O` (stereo not given): the max response in experiment [2] was 47.4%.

Take `Oc1ccc(Cl)cc1Sc1cc(Cl)ccc1O`: the AC50 in experiment [5] was 17.8 µM [falling, full curve, poor fit]; in experiment [6], 15.8 µM [falling, full curve]. In experiment [4], the max response was -12%.

On to `CCCC(=O)Cl`, for which the max response in experiment [2] was -52.5%.

Consider `O=C(Nc1ccc(Cl)cc1)Nc1ccc(Cl)c(Cl)c1`, for which the AC50 in experiment [5] was 6.31 µM [falling, partial curve, poor fit]; in experiment [6] it was 31.6 µM [falling, partial curve, poor fit]; in experiment [7] (measured here: 460 nm blue channel) it was 8.91 µM [falling, full curve]; in experiment [7] (measured here: 530 nm viability channel), 8.91 µM [falling, full curve].

For `COc1cnc(OC)n2nc(NS(=O)(=O)c3c(OCC(F)F)cccc3C(F)(F)F)nc12`, the concentration at half-maximal activity (AC50) in experiment [5] is 31.6 µM [rising, single point]. The max response in experiment [2] was 189%; in experiment [3] it was -17.3%.

`CC[C@H](C)[C@H]1O[C@]2(C=C[C@@H]1C)C[C@@H]1C[C@@H](C/C=C(\C)[C@@H](O[C@H]3C[C@H](OC)[C@@H](O[C@H]4C[C@H](OC)[C@@H](O)[C@H](C)O4)[C@H](C)O3)[C@@H](C)/C=C/C=C3\CO[C@@H]4[C@H](O)C(C)=C[C@@H](C(=O)O1)[C@]34O)O2`: the AC50 was 5.01 µM [rising, full curve, poor fit] in experiment [5] and 20 µM [falling, full curve] in experiment [8]. Besides, the max response in experiment [3] was 44.4%.

For the molecule `COCC(=O)N(c1c(C)cccc1C)[C@H](C)C(=O)OC`, the max response in experiment [2] is 53.2%.

Take `CC1(C)CCC(Cc2ccc(Cl)cc2)C1(O)Cn1cncn1` (stereo not given): the max response in experiment [2] is -44.9%.

As for `CC1(C)CC/C(=C\c2ccc(Cl)cc2)C1(O)Cn1cncn1` (stereo not given), in experiment [2], the max response is 70.9%.

On to `CSC1=N[C@@](C)(c2ccccc2)C(=O)N1Nc1ccccc1`, for which the AC50 in experiment [5] was 3.16 µM [falling, full curve, poor fit]. In addition, the max response in experiment [2] was determined as 10.4%; in experiment [4], 6.06%.

As for `CCOP(=S)(OCC)SCC(=O)NC(C)C`, the max response in experiment [2] is 62.3%.

Consider `Fc1ccc(Oc2ccnc3cc(Cl)cc(Cl)c23)cc1`, for which, in experiment [5], the AC50 was 35.5 µM [falling, partial curve, poor fit]. In addition, the values for the max response in experiment [2] and in experiment [3] were -51.1% and -31.2%, respectively.

With `CC1(C)[C@H](C(=O)O[C@H](C#N)c2cccc(Oc3ccccc3)c2)[C@@H]1C=C(Br)Br`, the AC50 in experiment [5] was 44.7 µM [falling, single point]; in experiment [6], 44.7 µM [falling, partial curve, poor fit]. Besides, the max response in experiment [4] was -17.4%.

For `CC(=O)Oc1ccccc1C(=O)Nc1ncc([N+](=O)[O-])s1`, the AC50 is 2.51 µM [falling, full curve] in experiment [5] and 8.91 µM [falling, partial curve, poor fit] in experiment [6]. Moreover, the max response in experiment [3] was 57.3%.

With `Clc1ccc(-c2cc(Cl)c(Cl)cc2Cl)cc1Cl`, the max response in experiment [2] is 92.8%.

With `CC1=NNC(=O)N(/N=C/c2cccnc2)C1`, in experiment [2], the max response turned out to be 69.3%.

For `C=C(C)C#N`, the max response in experiment [2] is 50.2% and -15.7%.

For `Brc1cc(Br)c(Oc2cc(Br)c(Br)cc2Br)cc1Br`, in experiment [2], the max response worked out at 76.7%.

`Clc1ccc(C(Cl)(Cl)Cl)cc1Cl`: in experiment [2], the max response was -51.6%.

With `CS(=O)(=O)c1cc(C(F)(F)F)ccc1C(=O)c1cnoc1C1CC1`, the AC50 in experiment [5] was 3.98 µM [falling, full curve, poor fit]. In experiment [3], the max response was determined as 4.83%.

Turning to `Oc1c(Cl)c(Cl)c(Cl)c(Cl)c1Cl`, the AC50 in experiment [5] is 12.6 µM [falling, full curve, poor fit]; in experiment [6] it was 12.6 µM [falling, full curve] and 5.62 µM [falling, full curve]. The max response in experiment [3] worked out at 19.7%.

Regarding `Nc1ccc(-c2ccc(N)c(O)c2)cc1O`, in experiment [5], the AC50 was 50.1 µM [falling, partial curve, poor fit]. The max response is -84.5% in experiment [2] and -46.3% in experiment [3].

As for `O=[N+]([O-])c1ccc(Cl)c(Cl)c1`, in experiment [2], the max response was -12.6%.

Take `C=CCc1cc(OC)c2c(c1)OCO2`: the max response in experiment [2] is -1.33%.

Turning to `O=Cc1ccccc1`, in experiment [2], the max response was 158%.

Turning to `CN(C)c1ccc(N=O)cc1`, the AC50 in experiment [5] was 31.6 µM [falling, partial curve, poor fit]; in experiment [8], 10 µM [falling, full curve]. The max response in experiment [2] was -86.3%; in experiment [3], 29%; in experiment [4], 46.5%.

With `Clc1ccc(COC(Cn2ccnc2)c2ccc(Cl)cc2Cl)cc1` (stereo not given), the AC50 is 35.5 µM [falling, partial curve, poor fit] in experiment [5] and 25.1 µM [falling, partial curve] in experiment [6]. Also, the max response was -25.4% in experiment [3] and -24.1% in experiment [4].

Consider `CCC[CH2][Sn]([Cl])([CH2]CCC)[CH2]CCC`, for which the AC50 in experiment [5] was 50.1 µM [falling, single point]; in experiment [8], 50.1 µM [falling, single point]. Besides, the max response in experiment [2] is -32.9%; in experiment [4] it was -23.8%.
